This assay has as its target T1, FLAG-HsGeminin-His6 (wild type) (human) (UniProt O75496).
T1 sequence: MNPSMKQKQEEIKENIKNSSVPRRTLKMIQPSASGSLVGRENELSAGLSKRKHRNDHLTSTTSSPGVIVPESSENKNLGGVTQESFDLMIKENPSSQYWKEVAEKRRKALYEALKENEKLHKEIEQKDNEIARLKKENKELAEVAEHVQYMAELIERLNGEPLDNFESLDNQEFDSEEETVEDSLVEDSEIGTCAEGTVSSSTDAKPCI
Description: co-IP; extract of Sf9 cells expressing one untagged HsMCM subunit mixed with extract of Sf9 cells expressing Myc-HsCdc6, FLAG-HsCdt1 and/or FLAG-HsGeminin-His6; anti-FLAG or anti-Myc agarose beads, 4 °C, 3 h; PBS plus 1% Triton X-100; washed with PBS; Western blot. On the technique in general: A western blot detects proteins with antibodies after separation by electrophoresis.

Protein sequences, listed by entry. Tags and fused reporters are not part of them.
UniProt P25205: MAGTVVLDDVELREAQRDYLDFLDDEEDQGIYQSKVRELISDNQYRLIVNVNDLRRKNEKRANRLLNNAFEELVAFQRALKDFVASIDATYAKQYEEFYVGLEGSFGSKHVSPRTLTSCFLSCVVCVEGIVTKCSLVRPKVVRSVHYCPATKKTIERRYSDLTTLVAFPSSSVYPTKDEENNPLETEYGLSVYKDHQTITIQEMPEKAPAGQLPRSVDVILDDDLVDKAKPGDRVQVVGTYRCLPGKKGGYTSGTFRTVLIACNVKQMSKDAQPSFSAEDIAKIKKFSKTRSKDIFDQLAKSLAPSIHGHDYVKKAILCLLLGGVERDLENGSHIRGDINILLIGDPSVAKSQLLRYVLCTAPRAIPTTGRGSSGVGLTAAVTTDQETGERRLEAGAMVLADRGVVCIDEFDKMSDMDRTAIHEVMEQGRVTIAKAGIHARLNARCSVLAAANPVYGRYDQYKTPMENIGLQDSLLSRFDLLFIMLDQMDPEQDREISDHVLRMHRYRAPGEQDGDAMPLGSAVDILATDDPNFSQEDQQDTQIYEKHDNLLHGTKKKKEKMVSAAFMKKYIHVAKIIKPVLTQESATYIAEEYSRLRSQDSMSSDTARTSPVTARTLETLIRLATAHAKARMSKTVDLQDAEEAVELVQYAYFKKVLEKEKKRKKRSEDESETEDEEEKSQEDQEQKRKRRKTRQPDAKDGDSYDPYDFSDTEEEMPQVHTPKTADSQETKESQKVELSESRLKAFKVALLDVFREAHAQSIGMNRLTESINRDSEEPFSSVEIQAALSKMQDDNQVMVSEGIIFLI

No constants are given. Whether binding was seen depends on the method and setting. In cells and extracts the contact can be indirect. Some binding calls cover weakened binding; strength is not graded here. Where a sequence is shown, tags or fusion partners need not be part of it.

In the case of “untagged human Mcm3 (from UniProt P25205 1-808)”, the binding entry is “binds”.

The values above are taken from publication PMC4215257.
